{"source": "paper PMC5794780", "about": "“ATP-dependent conformational change in ABC-ATPase RecF serves as a switch in DNA repair” (Scientific Reports, 2018)", "key": {"[1]": {"biological_target": "TTERecF mutant G35A (Thermoanaerobacter tengcongensis MB4) (UniProt Q8RDL3)", "experiment": "SEC; Superdex-200, 0.5 ml/min, 50 mM Tris-HCl pH 7.0, 300 mM NaCl; protein with ATP 1 mM (G35A 10 µM, K36A 77 µM, S37A 35 µM, N38A 47 µM); both purified"}, "[2]": {"biological_target": "TTERecF mutant K36A (Thermoanaerobacter tengcongensis MB4) (UniProt Q8RDL3)", "experiment": "SEC; Superdex-200, 0.5 ml/min, 50 mM Tris-HCl pH 7.0, 300 mM NaCl; protein with ATP 1 mM (G35A 10 µM, K36A 77 µM, S37A 35 µM, N38A 47 µM); both purified"}, "[3]": {"biological_target": "TTERecF mutant S37A (Thermoanaerobacter tengcongensis MB4) (UniProt Q8RDL3)", "experiment": "SEC; Superdex-200, 0.5 ml/min, 50 mM Tris-HCl pH 7.0, 300 mM NaCl; protein with ATP 1 mM (G35A 10 µM, K36A 77 µM, S37A 35 µM, N38A 47 µM); both purified"}, "[4]": {"biological_target": "TTERecF mutant N38A (Thermoanaerobacter tengcongensis MB4) (UniProt Q8RDL3)", "experiment": "SEC; Superdex-200, 0.5 ml/min, 50 mM Tris-HCl pH 7.0, 300 mM NaCl; protein with ATP 1 mM (G35A 10 µM, K36A 77 µM, S37A 35 µM, N38A 47 µM); both purified"}, "[5]": {"biological_target": "deletion mutant of RecF (229aa-262aa) (Thermoanaerobacter tengcongensis MB4) (UniProt Q8RDL3)", "experiment": "SEC; Superdex-200, 0.5 ml/min, 50 mM Tris-HCl pH 7.0, 300 mM NaCl; protein with ATPɤS (2 mM for native TTERecF; deletion mutant incubated with 1 mM ATPɤS for 30 min); both purified"}, "[6]": {"biological_target": "deletion mutant of RecF (229aa-262aa) (Thermoanaerobacter tengcongensis MB4) (UniProt Q8RDL3)", "experiment": "SEC; Superdex-200, 0.5 ml/min, 50 mM Tris-HCl pH 7.0, 300 mM NaCl; protein alone, no nucleotide (native TTERecF 100 µM); both purified"}}, "note": "Results are given in words; binding and its absence hold for the method and conditions named."}
{"binder": "TTERecF mutant G35A (protein, UniProt Q8RDL3 1-361) MYLKEIFVDNFRNLKKQKLEFCEGVNLIYGLNAQAKSNLLEAIRLLSMGRSFRGSKMSELVKFDEEYFYVRGLVRSADFYEKKIEFGYKVNGNKVIKVNGNKLKSTGEILGHFLTVIFSPEDIEIIKEGPSRRRKYLDACISVIDKNYFFDLLQYNKTLSNRNSLLKKIKEEGKGEDLLEIFDEKLAEYGARIIKVRNNYLEKLKNSMSKFLMEISNEKLEIIYLNSAGVKEVHEENLIREKLKNRLTKSLTLDLKYLSTQVGPHREDFKILINGYDSRVYSSQGQKRTAALCLKLSELEILEEETGEKPVLLLDDVMSELDDNRKKYILKKLEGFQSFITHTSKSDVEGDCCFKIYDGIV", "values": [{"measurement": "binding", "setting": "[1]", "result": "no binding (tested: 10 µM, with ATP 1 mM)"}]}
{"binder": "TTERecF mutant K36A (protein, UniProt Q8RDL3 1-361) MYLKEIFVDNFRNLKKQKLEFCEGVNLIYGLNAQGASNLLEAIRLLSMGRSFRGSKMSELVKFDEEYFYVRGLVRSADFYEKKIEFGYKVNGNKVIKVNGNKLKSTGEILGHFLTVIFSPEDIEIIKEGPSRRRKYLDACISVIDKNYFFDLLQYNKTLSNRNSLLKKIKEEGKGEDLLEIFDEKLAEYGARIIKVRNNYLEKLKNSMSKFLMEISNEKLEIIYLNSAGVKEVHEENLIREKLKNRLTKSLTLDLKYLSTQVGPHREDFKILINGYDSRVYSSQGQKRTAALCLKLSELEILEEETGEKPVLLLDDVMSELDDNRKKYILKKLEGFQSFITHTSKSDVEGDCCFKIYDGIV", "values": [{"measurement": "binding", "setting": "[2]", "result": "no binding (tested: 77 µM, with ATP 1 mM)"}]}
{"binder": "TTERecF mutant S37A (protein, UniProt Q8RDL3 1-361) MYLKEIFVDNFRNLKKQKLEFCEGVNLIYGLNAQGKANLLEAIRLLSMGRSFRGSKMSELVKFDEEYFYVRGLVRSADFYEKKIEFGYKVNGNKVIKVNGNKLKSTGEILGHFLTVIFSPEDIEIIKEGPSRRRKYLDACISVIDKNYFFDLLQYNKTLSNRNSLLKKIKEEGKGEDLLEIFDEKLAEYGARIIKVRNNYLEKLKNSMSKFLMEISNEKLEIIYLNSAGVKEVHEENLIREKLKNRLTKSLTLDLKYLSTQVGPHREDFKILINGYDSRVYSSQGQKRTAALCLKLSELEILEEETGEKPVLLLDDVMSELDDNRKKYILKKLEGFQSFITHTSKSDVEGDCCFKIYDGIV", "values": [{"measurement": "binding", "setting": "[3]", "result": "no binding (tested: 35 µM, with ATP 1 mM)"}]}
{"binder": "TTERecF mutant N38A (protein, UniProt Q8RDL3 1-361) MYLKEIFVDNFRNLKKQKLEFCEGVNLIYGLNAQGKSALLEAIRLLSMGRSFRGSKMSELVKFDEEYFYVRGLVRSADFYEKKIEFGYKVNGNKVIKVNGNKLKSTGEILGHFLTVIFSPEDIEIIKEGPSRRRKYLDACISVIDKNYFFDLLQYNKTLSNRNSLLKKIKEEGKGEDLLEIFDEKLAEYGARIIKVRNNYLEKLKNSMSKFLMEISNEKLEIIYLNSAGVKEVHEENLIREKLKNRLTKSLTLDLKYLSTQVGPHREDFKILINGYDSRVYSSQGQKRTAALCLKLSELEILEEETGEKPVLLLDDVMSELDDNRKKYILKKLEGFQSFITHTSKSDVEGDCCFKIYDGIV", "values": [{"measurement": "binding", "setting": "[4]", "result": "no binding (tested: 47 µM, with ATP 1 mM)"}]}
{"binder": "deletion mutant of RecF (229aa-262aa) (protein, UniProt Q8RDL3) MYLKEIFVDNFRNLKKQKLEFCEGVNLIYGLNAQGKSNLLEAIRLLSMGRSFRGSKMSELVKFDEEYFYVRGLVRSADFYEKKIEFGYKVNGNKVIKVNGNKLKSTGEILGHFLTVIFSPEDIEIIKEGPSRRRKYLDACISVIDKNYFFDLLQYNKTLSNRNSLLKKIKEEGKGEDLLEIFDEKLAEYGARIIKVRNNYLEKLKNSMSKFLMEISNEKLEIIYLNSAGPHREDFKILINGYDSRVYSSQGQKRTAALCLKLSELEILEEETGEKPVLLLDDVMSELDDNRKKYILKKLEGFQSFITHTSKSDVEGDCCFKIYDGIV", "values": [{"measurement": "binding", "setting": "[5]", "result": "no binding (tested: with 1 mM ATPɤS for 30 min)"}, {"measurement": "binding", "setting": "[6]", "result": "no binding"}]}
